The exact form of at least one protein or probe is not confirmed. At least one result comes from cells or an extract, where the contact may be indirect. Protein sequences can lack the tags named with them.
Target: T1, ToIRF1 (Flag-IRF1) (Trachinotus ovatus) (UniProt A0A6M3BF88)
T1 sequence (looked up): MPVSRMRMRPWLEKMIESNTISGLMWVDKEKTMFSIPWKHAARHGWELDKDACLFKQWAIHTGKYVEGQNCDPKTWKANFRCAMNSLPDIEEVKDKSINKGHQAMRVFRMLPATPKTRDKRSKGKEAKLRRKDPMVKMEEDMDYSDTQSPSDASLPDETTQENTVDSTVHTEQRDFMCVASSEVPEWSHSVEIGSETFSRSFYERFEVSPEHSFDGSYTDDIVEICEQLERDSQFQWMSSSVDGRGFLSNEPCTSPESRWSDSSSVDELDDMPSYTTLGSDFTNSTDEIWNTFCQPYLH
Experiment: EMSA
Conditions: Beyotime EMSA/Gel-Shift Kit binding buffer (composition not stated), 25 °C, nondenaturing 4% PAGE; protein in a lysate after overexpression; residues 1-299; protein details: Flag; label: biotin

CAGCAGAAATCCACTGAGCGGGAAAAATAT (double strand) [IFNa3-P2-WT5 (M5 ISRE)]
binding result: binds

From article PMC7177527
